Experimental data from patent publication US4029801A, “Pharmaceutical compositions and methods of treating hypertension” (priority 1970, dated 1977).
At least one structure is not confirmed: it was looked up by name or label, or the drawing left a doubt.

test system: not listed separately; assay: Depressant activity; type: in vivo; settings: result in words

Structure (SMILES)	depressant activity
COc1ccc(CCN2CCC(NC(C)=O)CC2)cc1OC [Example 3, 1-[2-(3,4-Dimethoxyphenyl)ethyl]-4-acetamidopiperidine]	depressant activity
COc1cc(CCN2CCC(NC(=O)c3ccccc3)CC2)cc(OC)c1OC [Example 8, 1-[2-(3,4,5-Trimethoxyphenyl)ethyl]-4-benzamidopiperidine]	depressant activity

test system: blood pressure; assay: Tests for action on the cardiovascular system: hypotensive activity (activity in method 1, rats or cats, or method 2), reported in words; type: in vivo, rat, cat; settings: standard test procedure, result in words
Procedure: Tests for action on the cardiovascular system were conducted according to one of the following procedures:
Cats were anaesthetised with pentobarbitone sodium (30 mg/kg) and the cephalic vein, femoral and carotid arteries and trachea were cannulated. The carotid cannula was introduced into the left ventricle and the femoral cannula into the aorta. Blood pressure and heart rate were recorded from the aortic cannula and left ventricular pressure from the carotid cannula. The test compunds were administered intravenously (0.1-25.6 mg/kg).
Method 2 (hypertensive rats)
Male or female rats are rendered hypertensive by applying a figure of 8 ligature around one kidney and contralateral nephrectomy. Blood pressure stabilises at a hypertensive level after 6 weeks. Systolic pressure is measured indirectly using a Decker Caudal Plethysmograph A control group of rats is run with each group treated with drug. Each group usually consists of six rats. Drugs are usually administered by the IP or oral routes. Pressures are read prior to drug administration and at two and 24 hours thereafter.

Structure (SMILES)	hypotensive activity
COc1ccc(CCN2CCC(NC(=O)c3ccccc3)CC2)cc1OC [Example 5, 1-[2-(3,4-Dimethoxyphenyl)ethyl]-4-benzamidopiperidine]	marked hypotensive activity
COc1cc(CCN2CCC(NC(=O)c3ccccc3)CC2)cc(OC)c1OC [Example 8, 1-[2-(3,4,5-Trimethoxyphenyl)ethyl]-4-benzamidopiperidine]	hypotensive
O=C(CCCN1CCC(NC(=O)c2ccccc2)CC1)c1ccc(Br)cc1 [Example 71, 4-Benzamido-1-[4-(4-bromophenyl)-4-oxobutyl]piperidine]	hypotensive activity
COc1ccc(C(=O)CCCN2CCC(NC(=O)c3ccccc3)CC2)cc1 [Example 77, 4-Benzamido-1-[4-(4-methoxyphenyl)-4-oxobutyl]piperidine]	hypotensive activity
